The supplement of paper PMC12823440, “Inhibitors supercharge kinase turnover through native proteolytic circuits” (Nature, 2025)
Structures can show the parent of a compound that is named as a salt. Some of the results follow. The calls rarely recur for the same compound in another form.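 Kinases, fused to nanoluciferase, were expressed in K562 cells; luminescence was measured every 4 h from 2 to 18 h as percent of control (DMSO = 100%, positive control = 0%). A time point is decreased if signal falls significantly (2 sigma). Hits were called by the authors by a rule that is not shown; the count of time points alone does not decide it.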

Chains of the proteins cited; added tags and fusions are not shown.
UniProt P07949, whole entry M918T, looked up: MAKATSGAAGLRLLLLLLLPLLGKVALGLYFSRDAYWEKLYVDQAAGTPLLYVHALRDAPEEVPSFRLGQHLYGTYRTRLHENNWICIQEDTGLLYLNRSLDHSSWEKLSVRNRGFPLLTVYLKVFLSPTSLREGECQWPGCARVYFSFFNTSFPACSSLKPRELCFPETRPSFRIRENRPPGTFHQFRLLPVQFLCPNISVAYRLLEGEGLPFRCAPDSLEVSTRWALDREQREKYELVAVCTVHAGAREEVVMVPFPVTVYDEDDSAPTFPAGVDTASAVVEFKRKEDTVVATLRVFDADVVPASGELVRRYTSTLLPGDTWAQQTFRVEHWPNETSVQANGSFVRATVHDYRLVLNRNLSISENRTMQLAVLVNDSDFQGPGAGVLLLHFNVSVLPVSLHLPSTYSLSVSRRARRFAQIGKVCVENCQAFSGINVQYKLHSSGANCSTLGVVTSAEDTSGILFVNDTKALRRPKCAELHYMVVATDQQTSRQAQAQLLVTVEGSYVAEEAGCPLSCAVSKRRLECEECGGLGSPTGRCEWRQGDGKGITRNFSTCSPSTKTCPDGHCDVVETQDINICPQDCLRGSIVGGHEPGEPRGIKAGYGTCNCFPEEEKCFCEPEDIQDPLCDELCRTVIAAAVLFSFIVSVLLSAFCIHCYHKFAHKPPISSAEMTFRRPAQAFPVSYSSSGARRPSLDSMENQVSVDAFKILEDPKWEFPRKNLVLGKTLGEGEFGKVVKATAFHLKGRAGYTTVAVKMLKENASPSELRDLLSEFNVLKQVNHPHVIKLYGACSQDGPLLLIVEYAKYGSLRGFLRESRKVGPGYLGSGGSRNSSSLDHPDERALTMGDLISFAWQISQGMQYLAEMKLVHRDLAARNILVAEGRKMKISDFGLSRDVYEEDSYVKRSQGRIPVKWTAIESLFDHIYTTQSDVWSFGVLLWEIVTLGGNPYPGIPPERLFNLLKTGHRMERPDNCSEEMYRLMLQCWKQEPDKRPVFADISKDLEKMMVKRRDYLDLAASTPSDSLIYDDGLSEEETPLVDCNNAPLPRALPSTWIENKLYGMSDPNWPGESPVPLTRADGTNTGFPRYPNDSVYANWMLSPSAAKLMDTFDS

target: RET_M918T (clone: RET_mut) (UniProt P07949); test: kinase-Nluc reporter destabilization hit call (1 = scored as downregulated) (binary); higher = compound decreases kinase abundance; details: 10 µM; K562; 2-18 h

kinase-Nluc reporter destabilization hit call, inactive:
CNC(=O)c1ccc(Nc2ncc(C(F)(F)F)c(NCc3nccnc3N(C)S(C)(=O)=O)n2)cc1 [Defactinib (hydrochloride)] 0, C#Cc1cccc(Nc2ncnc3cc4c(cc23)OCCOCCOCCO4)c1 [Icotinib (Hydrochloride)] 0, CNC(=O)c1ccc(Nc2ncc(C(F)(F)F)c(NCc3nccnc3N(C)S(C)(=O)=O)n2)cc1 [Defactinib] 0, N#CCNC(=O)c1ccc(-c2ccnc(Nc3ccc(N4CCOCC4)cc3)n2)cc1 [Momelotinib sulfate] 0, N#CCC1(n2cc(-c3ncnc4[nH]ccc34)cn2)CN(C2CCN(C(=O)c3ccnc(C(F)(F)F)c3F)CC2)C1 [Itacitinib] 0, CC(=O)Nc1cccc(-n2c(=O)n(C3CC3)c(=O)c3c(Nc4ccc(I)cc4F)n(C)c(=O)c(C)c32)c1 [Trametinib] 0, C[C@H](CCC(=O)NCCS(=O)(=O)O)[C@H]1CC[C@H]2[C@@H]3[C@@H](O)C[C@@H]4C[C@H](O)CC[C@]4(C)[C@H]3CC[C@]12C [Tauroursodeoxycholate (sodium)] 0, Cc1cccc(/C=N/Nc2cc(N3CCOCC3)nc(OCCc3ccccn3)n2)c1 [Apilimod (mesylate)] 0, N#CCNC(=O)c1ccc(-c2ccnc(Nc3ccc(N4CCOCC4)cc3)n2)cc1 [Momelotinib] 0, C[S+]([O-])c1ccc(-c2nc(-c3ccc(F)cc3)c(-c3ccncc3)[nH]2)cc1 (stereo unspecified) 0, COc1cc2c(cc1OC)-c1c(C)c3ccc(OC)c(OC)c3c[n+]1CC2 [Dehydrocorydaline (chloride)] 0, CCCC(=O)Nc1ncnc2c1ncn2[C@@H]1O[C@@H]2COP(=O)(O)O[C@H]2[C@H]1OC(=O)CCC [Bucladesine (sodium)] 0, COc1ccnc(C[S+]([O-])c2nc3cc(-n4cccc4)ccc3[nH]2)c1C (stereo unspecified) [Ilaprazole] 0, COC(=O)[C@H](CC(C)C)NC(=O)c1ccc(NC[C@@H](N)CS)cc1-c1cccc2ccccc12 0, COc1ncc(F)cc1CNc1ccc(Cc2c[nH]c3ncc(C)cc23)c(F)n1 0, C#Cc1cccc(Nc2ncnc3cc(OCCOC)c(OCCO)cc23)c1 [Desmethyl Erlotinib] 0, Cn1ncc(Cl)c1-c1cc(C(=O)N[C@H](CN)Cc2cccc(F)c2)sc1Cl [Afuresertib] 0, O=C(c1ccc(F)c(F)c1Nc1ccc(I)cc1F)N1CC(O)([C@@H]2CCCCN2)C1 [Cobimetinib (hemifumarate)] 0, COc1cc(/C=C/C(=O)O)ccc1O [Ferulic acid (sodium)] 0, CNc1ncc2cc(-c3ccc(-c4cccc(C)n4)cc3Cl)c(=O)n(C[C@H]3OC[C@H](N)CO3)c2n1 0, COC(=O)[C@H](CC(C)C)NC(=O)c1ccc(NC[C@@H](N)CS)cc1-c1cccc2ccccc12 [GGTI298 (Trifluoroacetate)] 0, Nc1cncc(-c2cn3ccnc3c(Nc3ccc(N4CCN(C5COC5)CC4)cc3)n2)n1 [Lanraplenib (succinate)] 0, CN(C)C(=O)c1cc2cnc(Nc3ccc(N4CCNCC4)cn3)nc2n1C1CCCC1 [Ribociclib] 0, CC(C)NC[C@@H](C(=O)N1CCN(c2ncnc3c2[C@H](C)C[C@H]3O)CC1)c1ccc(Cl)cc1 [Ipatasertib] 0, COc1cc(/C=C/C(=O)O)ccc1O [Ferulic acid] 0, CN(C)C/C=C/C(=O)Nc1cc2c(Nc3ccc(F)c(Cl)c3)ncnc2cc1O[C@H]1CCOC1 [Afatinib] 0
